Results as given in paper PMC6619347.
No constants are given. Whether binding was seen depends on the method and setting. Binding seen in cells or lysates may run through a third protein. Some binding calls cover weakened binding; strength is not graded here. Blank lines part the entries; values can stand above or below the molecule they belong to.

By UniProt entry, the sequences of proteins in these tests, tags left out.
UniProt P35222: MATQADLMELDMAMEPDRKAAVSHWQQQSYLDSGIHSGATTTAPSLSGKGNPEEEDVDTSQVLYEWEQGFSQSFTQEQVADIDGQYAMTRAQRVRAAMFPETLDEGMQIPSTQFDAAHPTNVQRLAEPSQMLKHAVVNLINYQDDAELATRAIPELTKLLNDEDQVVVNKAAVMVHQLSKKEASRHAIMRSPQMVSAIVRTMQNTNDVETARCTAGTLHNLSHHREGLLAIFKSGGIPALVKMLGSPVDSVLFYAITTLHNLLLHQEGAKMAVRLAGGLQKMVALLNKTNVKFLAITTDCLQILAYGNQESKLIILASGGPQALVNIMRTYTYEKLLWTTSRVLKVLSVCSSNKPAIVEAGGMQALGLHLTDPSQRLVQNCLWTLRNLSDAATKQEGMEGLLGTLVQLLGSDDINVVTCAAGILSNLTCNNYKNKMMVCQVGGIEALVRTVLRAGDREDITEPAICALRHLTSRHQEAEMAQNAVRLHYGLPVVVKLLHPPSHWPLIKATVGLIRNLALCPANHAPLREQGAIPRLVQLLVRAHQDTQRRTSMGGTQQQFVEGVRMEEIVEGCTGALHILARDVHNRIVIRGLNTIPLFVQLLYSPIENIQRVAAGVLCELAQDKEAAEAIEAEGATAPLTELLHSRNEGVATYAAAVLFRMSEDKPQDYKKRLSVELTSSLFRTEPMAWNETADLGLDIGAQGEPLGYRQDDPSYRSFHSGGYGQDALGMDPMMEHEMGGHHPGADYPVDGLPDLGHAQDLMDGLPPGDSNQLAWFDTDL

Assays:
[1] = molecular target: T1, DDK‐FBXO16 (human) (UniProt Q8IX29); assay: co-IP; MCF7 cells coexpressing DDK‐FBXO16 and GFP‐β‐catenin for 40 h, then 5 μM MG132 for 6 h; whole‐cell lysates immunoprecipitated with the indicated antibodies, immunoblot
T1 sequence: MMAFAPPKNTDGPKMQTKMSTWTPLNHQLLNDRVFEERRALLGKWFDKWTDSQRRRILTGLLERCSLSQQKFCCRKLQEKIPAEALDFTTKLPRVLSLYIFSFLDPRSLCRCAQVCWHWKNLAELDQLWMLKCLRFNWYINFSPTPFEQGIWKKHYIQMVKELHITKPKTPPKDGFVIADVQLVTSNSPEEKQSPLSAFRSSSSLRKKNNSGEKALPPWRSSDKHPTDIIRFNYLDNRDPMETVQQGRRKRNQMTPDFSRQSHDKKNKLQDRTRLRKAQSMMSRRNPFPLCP

[2] = molecular target: T2, FBXO16 (endogenous) (human (endogenous in MCF7)) (UniProt Q8IX29); assay: co-IP; endogenous proteins; whole‐cell lysates of MCF7 cells pretreated with 5 μM MG132 for 6 h; IgG immunoprecipitates as control; immunoblot
T2 sequence: T1 sequence

[3] = molecular target: T3, FBXO16 (in HEK‐293 cells) (human) (UniProt Q8IX29); assay: co-IP; HEK‐293 cells, without and with the proteasome inhibitor MG132 (Figure S1B)
T3 sequence: T1 sequence

[4] = molecular target: GFP‐WT‐β‐catenin (UniProt P35222); assay: co-IP; MCF7 cells coexpressing DDK‐FBXO16 and GFP‐β‐catenin for 40 h, then 5 μM MG132 for 6 h; whole‐cell lysates immunoprecipitated with the indicated antibodies, immunoblot
[5] = molecular target: β‐catenin (endogenous) (human (endogenous in MCF7)) (UniProt P35222); assay: co-IP; endogenous proteins; whole‐cell lysates of MCF7 cells pretreated with 5 μM MG132 for 6 h; IgG immunoprecipitates as control; immunoblot
[6] = molecular target: β‐catenin (endogenous) (human (endogenous in MCF7)) (UniProt P35222); assay: co-IP; nuclear and cytoplasmic fractions immunoprecipitated with anti‐β‐catenin antibody or IgG; cells grown with 5 μM MG132 for 6 h; immunoblot

binding [1]: binds
Molecule: GFP‐WT‐β‐catenin (from UniProt P35222 1-781)

binding [2]: binds
Molecule: β‐catenin (endogenous) (from UniProt P35222 1-781)

binding [3]: binds
Molecule: β‐catenin (in HEK‐293 cells) (from UniProt P35222 1-781)

binding [4]: binds
B1: DDK‐FBXO16 (protein, UniProt Q8IX29 1-292)
chain: T1 sequence

binding [5]: binds
binding [6]: binds
B2: FBXO16 (endogenous) (protein, UniProt Q8IX29 1-292)
chain: T1 sequence
